Some of the results follow. Shown are side measurements of this screen, not its main read-out; they come without a call. Compounds called inactive in the main read-out are mostly missing here. Words in brackets tell the shape of the fitted curve; partial curves, single points and poor fits give uncertain potencies.

The test in a line: qHTS Assay for Modulators of Lamin A Splicing. The following applies: HeLa LMNA splicing GFP/RFP minigene ratio, 48 h. The procedure, abridged:
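S3 HeLa cells stably expressing lamin A-EGFP splicing minigene plus DsRed2, 600 cells/well, 48 h compound exposure at 37C. Laser-scanning cytometry; analysed as GFP (500-530 nm)/RFP (575-640 nm) total intensity ratio; 0.5% DMSO vehicle.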
In general terms: In qHTS, concentration-response curves come from the screen itself.

[1] abbreviates: measured here: RFP viability control channel.
Where [2] appears, read: measured here: GFP splicing reporter channel.

As usually defined, the AC50 is the midpoint of the concentration-response curve, whichever way the signal moves. Turning to `Cc1ccccc1NC(=S)NCc1ccc2[nH]c3c(c2c1)CCCC3`, the AC50 under setting [1] is 35.5 µM [rising, single point].

Turning to `Cc1ccc(S(=O)(=O)N2CCOCC2)cc1NC(=O)CSc1nc2ccccc2c(=O)n1Cc1ccccc1`, the concentration at half-maximal activity (AC50) under setting [2] was 3.16 µM [rising, full curve, poor fit].

Consider `COc1ccc(-n2cnnc2SCc2ncc(-c3ccccc3)o2)cc1`, for which the AC50 under setting [2] is 17.8 µM [rising, partial curve, poor fit].

In the case of `CC(C)CNS(=O)(=O)c1ccc(CCC(=O)N2CCN(Cc3ccc4c(c3)OCO4)CC2)cc1`, the half-maximal activity concentration (AC50) is 0.631 µM [rising, partial curve] under setting [2] and 20 µM [rising, partial curve] under setting [1].

On to `Cc1cc(C)n(-c2cc(N3CCN(C(=O)c4cccc(F)c4)CC3)ccc2[N+](=O)[O-])n1`, for which the concentration at half-maximal activity (AC50) under setting [2] was 17.8 µM [rising, partial curve, poor fit] and the half-maximal activity concentration (AC50) under setting [1] was 35.5 µM [rising, single point].

Turning to `COc1ccc(Br)cc1C(=O)Nc1ccccc1-c1ccccc1`, the half-maximal activity concentration (AC50) under setting [1] was 15.8 µM [rising, single point].

As for `O=C(CSc1ccsc1[N+](=O)[O-])N1CCCCCC1`, the AC50 under setting [2] is 0.00447 µM [rising, full curve, poor fit].

For `COc1cc(C2C(C#N)=C(N)N(Nc3ccccc3)C3=C2C(=O)CC(C)(C)C3)ccc1OCc1ccccc1` (stereo unspecified), the concentration at half-maximal activity (AC50) under setting [2] was 12.6 µM [falling, single point].

In the case of `Cc1ccc(C(=O)c2cc([N+](=O)[O-])ccc2N2CC(C)OC(C)C2)cc1` (stereo unspecified), the AC50 under setting [1] was 6.31 µM [rising, partial curve].

Turning to `C/C=C\C(=O)N(CC)c1ccccc1C`, the half-maximal activity concentration (AC50) was 0.00794 µM [falling, full curve, poor fit] under setting [2] and 3.16 µM [falling, single point] under setting [1].

Turning to `O=C(CSCc1ccc(Br)cc1)Nc1ccc(S(=O)(=O)N2CCOCC2)cc1`, the concentration at half-maximal activity (AC50) under setting [2] is 14.1 µM [rising, single point].

In the case of `COc1cc(S(=O)(=O)NCCOC23CC4CC(CC(C4)C2)C3)c(OC)cc1Cl`, the AC50 reads like this: under setting [2], 11.2 µM [rising, partial curve]; under setting [1], 7.08 µM [rising, partial curve].

With `COc1cccc(C(=O)NCc2ccc3c(c2)CCN3C(=O)c2ccncc2)c1`, the concentration at half-maximal activity (AC50) under setting [2] is 5.62 µM [rising, single point].

For `Cc1cc(NC(=O)CSc2cc(Cl)ccc2Cl)n(-c2ccccc2)n1`, the AC50 under setting [1] is 22.4 µM [rising, single point].

In the case of `Cn1c(=O)[nH]c2cc3ccccc3cc21`, the concentration at half-maximal activity (AC50) reads like this: under setting [2], 20 µM [falling, partial curve, poor fit]; under setting [1], 15.8 µM [falling, partial curve].

On to `COc1ccc(C(=O)NC(=S)NNC(=O)COc2ccccc2)cc1`, for which, under setting [1], the concentration at half-maximal activity (AC50) is 15.8 µM [rising, single point].

For the compound `Cc1nc2cc(-c3ccc(Cl)cc3)nn2c(C)c1CCC(=O)NC(C)c1ccc2c(c1)OCCO2` (stereo unspecified), the AC50 under setting [2] was 15.8 µM [falling, single point].

For `Cc1ccc(C(=O)NC(C#N)=C(Cl)Cl)cc1`, the concentration at half-maximal activity (AC50) is 7.94 µM [falling, partial curve] under setting [2] and 12.6 µM [falling, partial curve] under setting [1].

For the compound `O=S(=O)(NCC1CCCO1)c1cnc(Cl)c(Cl)c1` (stereo unspecified), under setting [2], the concentration at half-maximal activity (AC50) was 5.01 µM [rising, single point].

Take `CN1CCN(C(=O)c2ccc(CN(c3ccccc3)S(=O)(=O)c3ccccc3)cc2)CC1`: under setting [1], the half-maximal activity concentration (AC50) is 7.08 µM [falling, full curve, poor fit].

Take `Clc1ccc(-c2nc3cnccn3c2Nc2ccc3c(c2)OCO3)cc1`: the AC50 under setting [2] was 12.6 µM [rising, single point] and the AC50 under setting [1] was 12.6 µM [rising, partial curve].

For `COc1ccc(-n2c(=O)c(CCC(=O)N(C)Cc3ccccc3C)nc3ccccc32)cc1`, the concentration at half-maximal activity (AC50) by setting is: under setting [2], 35.5 µM [falling, partial curve, poor fit]; under setting [1], 4.47 µM [falling, partial curve, poor fit].

`CC(C)CC(=O)N1CCN(C(=O)CCC2CCCC2)CC1`: the AC50 under setting [2] is 20 µM [rising, single point].

Turning to `O=C(NCCC1=CCCCC1)C1CCN(C(=O)Cc2ccccc2)CC1`, the half-maximal activity concentration (AC50) under setting [1] was 17.8 µM [falling, partial curve].

Regarding `Cc1ccc(-c2c(C#N)c(N)n3c(nc4ccccc43)c2C#N)cc1`, the half-maximal activity concentration (AC50) under setting [1] was 12.6 µM [rising, partial curve].

With `CN1CCN(C2(CNC(=O)c3ccc(C(C)(C)C)cc3)CCCCC2)CC1`, under setting [2], the concentration at half-maximal activity (AC50) is 35.5 µM [falling, single point].

Regarding `FC(F)(F)c1ccc(NC(=S)NC2CCCCC2)cc1`, the AC50 under setting [1] was 35.5 µM [rising, single point].

Regarding `Cn1c(=O)c2c(nc(Br)n2CCc2ccccc2)n(C)c1=O`, the half-maximal activity concentration (AC50) under setting [1] is 11.2 µM [rising, single point].

`CCSc1nc(-c2ccccc2)c(-c2ccccc2)n1CC(O)CO` (stereo unspecified): the concentration at half-maximal activity (AC50) under setting [2] was 0.501 µM [falling, partial curve].

Turning to `O=C(NCc1ccccc1)c1ccc(-c2ccc(F)cc2)o1`, the half-maximal activity concentration (AC50) under setting [2] was 31.6 µM [rising, single point] and the AC50 under setting [1] is 35.5 µM [rising, single point].

As to `O=C(Nc1ccn(Cc2ccc(Cl)cc2)n1)c1ccccc1`, the AC50 under setting [1] was 14.1 µM [rising, partial curve, poor fit].

As to `COc1ccc(N2C(=O)CC(Sc3nc4c(cc3C#N)CCC4)C2=O)cc1` (stereo unspecified), the half-maximal activity concentration (AC50) under setting [2] is 14.1 µM [falling, single point] and the half-maximal activity concentration (AC50) under setting [1] is 17.8 µM [falling, partial curve, poor fit].

On to `CC(NC(=O)CN(C1CCCCC1)S(C)(=O)=O)c1ccccc1` (stereo unspecified), for which the half-maximal activity concentration (AC50) under setting [2] is 35.5 µM [falling, single point].

As for `O=C(CCl)Nc1cccc(S(=O)(=O)N2CCCCCC2)c1`, the concentration at half-maximal activity (AC50) is 35.5 µM [falling, single point] under setting [2] and 14.1 µM [falling, single point] under setting [1].

`CCC1(CC)NC(=O)N(CC(=O)N2N=C(c3ccc(Cl)cc3)CC2c2ccco2)C1=O` (stereo unspecified): under setting [2], the AC50 was 10 µM [falling, single point].

Take `C/C(=N\NC(=O)CSc1nc(C)cc(C)n1)c1ccc2c(c1)OCCO2`: the AC50 reads like this: under setting [2], 0.562 µM [rising, full curve, poor fit]; under setting [1], 1 µM [rising, single point].

In the case of `COc1cc(N[C@@H](C)CCCN)c2ncccc2c1`, the half-maximal activity concentration (AC50) is 0.02 µM [falling, full curve] under setting [2] and 0.00891 µM [falling, full curve] under setting [1].

As to `O=C(c1cc2ccccc2oc1=O)N1CCN(c2ccc(N3CCOCC3)nn2)CC1`, the AC50 is 1.12 µM [falling, full curve] under setting [2] and 1.26 µM [falling, full curve, poor fit] under setting [1].

For `O=C(NCCCl)c1ccc(OCc2ccccc2)cc1Cl`, the AC50 under setting [2] was 0.794 µM [rising, full curve, poor fit].

Turning to `COc1ccc(C(=O)/C=C/c2ccc(OC3CSC3)cc2)cc1`, the concentration at half-maximal activity (AC50) was 35.5 µM [falling, single point] under setting [2] and 3.98 µM [rising, single point] under setting [1].

For the compound `O=C(c1ccc(N2C(=O)C3C4c5ccccc5C(c5ccccc54)C3C2=O)cc1)N1CCOCC1` (stereo unspecified), the half-maximal activity concentration (AC50) under setting [2] is 4.47 µM [rising, partial curve].

Turning to `Cc1ccc(-c2nc(CN(Cc3cnn(C)c3)C(C)C)c(C)o2)o1`, the AC50 under setting [1] is 0.0562 µM [falling, partial curve, poor fit].

On to `COc1ccc(CNC(=O)Cn2c(SCC(=O)Nc3ccc(OC)cc3)nc3ccccc32)cc1`, for which the AC50 was 35.5 µM [falling, single point] under setting [2] and 35.5 µM [falling, single point] under setting [1].

As for `COc1cccc(NC(=O)NCCCSC2CCCCC2)c1`, the AC50 is 10 µM [rising, partial curve] under setting [2] and 12.6 µM [rising, partial curve] under setting [1].

Turning to `COc1ccc(CCC(=O)OCC(=O)c2ccc(C)cc2)cc1`, the AC50 under setting [2] is 0.0631 µM [rising, full curve, poor fit] and the AC50 under setting [1] is 10 µM [rising, partial curve, poor fit].

Take `COCCN1CCN(c2cc(-c3ccccc3)nc3cc(-c4cccc(F)c4)nn23)CC1`: the half-maximal activity concentration (AC50) under setting [1] is 7.08 µM [rising, partial curve].

As to `COc1ccc2c(=O)c(-c3ccc4c(c3)OCO4)coc2c1`, the AC50 under setting [1] is 12.6 µM [rising, single point].

For `CC(=O)Nc1ccc(S(=O)(=O)NCc2ccc(C)cc2)cc1`, under setting [1], the AC50 was 14.1 µM [rising, single point].

On to `COc1ccc(C(C)C)cc1S(=O)(=O)N1CCN(c2ccccc2)CC1`, for which, under setting [2], the AC50 is 20 µM [rising, partial curve, poor fit].

With `CC(=O)c1c(C)[nH]c(C(=O)CSc2nnc(-c3ccccc3)o2)c1C`, the AC50 runs as follows: under setting [2], 2.24 µM [rising, full curve]; under setting [1], 3.55 µM [rising, full curve].

Consider `O=C1c2cccc(OCc3ccc(F)cc3)c2CCN1Cc1ccc(F)cc1`, for which, under setting [1], the concentration at half-maximal activity (AC50) was 12.6 µM [rising, partial curve, poor fit].

With `Cc1ccc2nsnc2c1S(=O)(=O)NCc1ccncc1`, the concentration at half-maximal activity (AC50) under setting [1] was 35.5 µM [rising, single point].

Consider `O=C(/C=C/c1ccc2c(c1)OCO2)NCCCN1CCOCC1`, for which the AC50 under setting [1] was 35.5 µM [rising, single point].

For `Cc1ccc(C)c(OCC(=O)NCCNC(=O)COc2cc(C)ccc2C)c1`, under setting [1], the AC50 was 17.8 µM [rising, single point].

On to `CN(Cc1ccco1)c1ccnc(-c2cccc(NS(C)(=O)=O)c2)n1`, for which the AC50 under setting [2] is 12.6 µM [rising, single point].

For the compound `CCN(CC(=O)Nc1ccccc1OC)CC(=O)Nc1c(Cl)ccc(C)c1Cl`, the AC50 under setting [2] was 0.141 µM [rising, full curve, poor fit].

On to `Cc1cccc(N2C(=O)N(CC(=O)C(C)(C)C)c3ccccc3S2(=O)=O)c1C`, for which the concentration at half-maximal activity (AC50) under setting [2] is 0.891 µM [falling, full curve, poor fit].

The values are drawn from PubChem BioAssay AID1487 (National Center for Advancing Translational Sciences (NCATS), 2009).
